From ChEMBL document CHEMBL3988442, “University of Dundee, Small-Polar-MMV Screening Library” (2021).

Sequences of proteins named here, by UniProt entry; tags and fusion partners are left off. Residues count along the entry.
UniProt P9WFT3, whole entry: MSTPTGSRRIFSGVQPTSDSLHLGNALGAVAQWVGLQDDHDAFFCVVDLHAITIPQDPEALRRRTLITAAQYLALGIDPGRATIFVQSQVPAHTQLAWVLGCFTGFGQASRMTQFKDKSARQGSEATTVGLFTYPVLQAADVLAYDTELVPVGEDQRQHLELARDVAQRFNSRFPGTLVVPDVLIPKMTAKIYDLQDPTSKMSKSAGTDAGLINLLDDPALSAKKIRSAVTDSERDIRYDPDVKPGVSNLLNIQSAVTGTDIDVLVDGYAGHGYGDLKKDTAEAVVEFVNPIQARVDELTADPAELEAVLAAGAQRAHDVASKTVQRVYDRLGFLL
UniProt I6X8D2, whole entry: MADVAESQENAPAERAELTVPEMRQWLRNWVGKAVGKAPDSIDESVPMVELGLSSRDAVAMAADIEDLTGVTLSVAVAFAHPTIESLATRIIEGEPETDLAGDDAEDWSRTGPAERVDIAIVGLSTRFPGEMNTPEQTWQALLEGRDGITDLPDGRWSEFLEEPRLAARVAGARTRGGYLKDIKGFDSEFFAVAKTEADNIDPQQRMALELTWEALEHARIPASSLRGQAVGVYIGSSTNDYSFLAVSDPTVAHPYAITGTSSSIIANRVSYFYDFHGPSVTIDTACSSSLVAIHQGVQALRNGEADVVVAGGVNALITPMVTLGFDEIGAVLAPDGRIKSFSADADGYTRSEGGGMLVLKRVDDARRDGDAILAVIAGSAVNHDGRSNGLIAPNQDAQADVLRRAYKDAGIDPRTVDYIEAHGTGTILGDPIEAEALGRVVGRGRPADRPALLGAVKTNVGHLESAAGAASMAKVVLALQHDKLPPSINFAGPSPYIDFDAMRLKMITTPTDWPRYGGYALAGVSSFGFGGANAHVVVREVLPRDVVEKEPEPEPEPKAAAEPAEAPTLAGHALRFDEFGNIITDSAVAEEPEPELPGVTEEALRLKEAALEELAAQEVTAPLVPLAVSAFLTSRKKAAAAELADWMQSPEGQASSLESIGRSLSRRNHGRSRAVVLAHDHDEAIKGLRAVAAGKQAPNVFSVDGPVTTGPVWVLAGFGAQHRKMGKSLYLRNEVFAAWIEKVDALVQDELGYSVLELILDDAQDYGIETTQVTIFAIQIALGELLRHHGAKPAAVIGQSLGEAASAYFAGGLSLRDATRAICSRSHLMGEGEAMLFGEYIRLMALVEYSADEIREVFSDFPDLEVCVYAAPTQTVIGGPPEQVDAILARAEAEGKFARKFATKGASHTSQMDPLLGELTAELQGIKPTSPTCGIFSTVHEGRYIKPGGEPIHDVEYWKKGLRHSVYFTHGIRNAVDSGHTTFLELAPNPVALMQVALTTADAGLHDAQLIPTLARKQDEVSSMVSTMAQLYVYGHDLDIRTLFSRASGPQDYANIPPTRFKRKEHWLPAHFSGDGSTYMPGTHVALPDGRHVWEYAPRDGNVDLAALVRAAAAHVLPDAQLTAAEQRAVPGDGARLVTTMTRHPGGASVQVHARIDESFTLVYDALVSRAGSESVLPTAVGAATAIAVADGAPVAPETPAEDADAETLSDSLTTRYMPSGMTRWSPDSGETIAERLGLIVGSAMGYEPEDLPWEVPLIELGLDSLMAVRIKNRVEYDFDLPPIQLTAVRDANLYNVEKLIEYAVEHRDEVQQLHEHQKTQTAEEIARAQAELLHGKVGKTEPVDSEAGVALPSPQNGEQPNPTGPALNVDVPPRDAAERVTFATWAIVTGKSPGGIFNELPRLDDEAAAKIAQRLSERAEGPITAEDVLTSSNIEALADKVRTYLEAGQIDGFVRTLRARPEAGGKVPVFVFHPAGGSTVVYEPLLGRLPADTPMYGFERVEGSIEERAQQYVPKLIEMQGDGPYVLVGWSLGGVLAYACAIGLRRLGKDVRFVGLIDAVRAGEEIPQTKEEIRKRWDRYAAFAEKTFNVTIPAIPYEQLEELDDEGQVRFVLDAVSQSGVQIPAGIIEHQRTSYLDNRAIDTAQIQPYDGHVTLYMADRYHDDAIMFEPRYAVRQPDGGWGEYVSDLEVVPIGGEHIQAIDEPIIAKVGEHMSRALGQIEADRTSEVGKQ
UniProt A4I591, 1-473: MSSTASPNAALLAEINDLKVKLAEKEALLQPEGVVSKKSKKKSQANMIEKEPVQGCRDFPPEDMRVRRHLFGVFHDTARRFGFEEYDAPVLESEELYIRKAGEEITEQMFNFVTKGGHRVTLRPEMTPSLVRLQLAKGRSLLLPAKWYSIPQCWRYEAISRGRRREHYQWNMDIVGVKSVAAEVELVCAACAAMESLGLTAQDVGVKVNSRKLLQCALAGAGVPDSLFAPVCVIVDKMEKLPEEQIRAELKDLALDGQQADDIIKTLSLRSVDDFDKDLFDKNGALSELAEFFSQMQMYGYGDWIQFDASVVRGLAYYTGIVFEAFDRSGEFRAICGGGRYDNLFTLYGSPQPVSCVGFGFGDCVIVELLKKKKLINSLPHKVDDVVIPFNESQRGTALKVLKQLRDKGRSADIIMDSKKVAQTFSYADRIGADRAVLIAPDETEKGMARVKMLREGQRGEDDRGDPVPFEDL
UniProt Q8IDJ8, 1-583: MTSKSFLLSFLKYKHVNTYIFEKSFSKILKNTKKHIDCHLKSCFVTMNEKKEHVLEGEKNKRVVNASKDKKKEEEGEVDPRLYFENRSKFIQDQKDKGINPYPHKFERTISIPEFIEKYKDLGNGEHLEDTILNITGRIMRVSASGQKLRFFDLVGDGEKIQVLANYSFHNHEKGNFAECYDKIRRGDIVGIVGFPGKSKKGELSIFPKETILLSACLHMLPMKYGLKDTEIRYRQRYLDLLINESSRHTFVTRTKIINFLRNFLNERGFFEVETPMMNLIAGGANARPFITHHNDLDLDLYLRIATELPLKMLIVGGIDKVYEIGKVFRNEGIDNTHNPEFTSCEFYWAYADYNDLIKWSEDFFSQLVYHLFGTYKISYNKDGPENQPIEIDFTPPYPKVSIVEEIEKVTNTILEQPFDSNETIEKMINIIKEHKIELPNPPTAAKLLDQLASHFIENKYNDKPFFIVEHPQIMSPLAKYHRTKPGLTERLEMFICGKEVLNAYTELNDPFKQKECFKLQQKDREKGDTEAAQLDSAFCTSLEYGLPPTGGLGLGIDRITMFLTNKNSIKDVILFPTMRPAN

A: 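Tryptophan-tRNA ligase, Mycobacterium tuberculosis (UniProt P9WFT3). Enzyme assay of tryptophanyl-tRNA synthetase; the read-out is not stated. Concentration: 10 µM. Higher most likely means stronger inhibition; the record gives no direction and few retests gave an IC50. Of about 65,000 compounds tested this way, about 64 (0.098%) reached 50% or more in at least one test.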
B: 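Enzyme assay of the thioesterase domain of polyketide synthase 13; the read-out is not stated. Target: Polyketide synthase Pks13, Mycobacterium tuberculosis (UniProt I6X8D2). Compounds at 30 µM. The record gives no direction; the compounds picked for IC50 retests had high values, so higher reads as stronger inhibition. About 67,000 compounds were tested under these conditions; 0.46% (about 300) showed 50% or more at least once.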
C: 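Enzyme assay of histidyl-tRNA synthetase; the read-out is not stated. Target: Histidine-tRNA ligase, Leishmania infantum (UniProt A4I591). Compounds at 30 µM. The record gives no direction; compounds that gave an IC50 in retests scored well above the rest, so higher reads as stronger inhibition. The assay is labelled LdHisRS but filed under L. infantum. About 69,000 compounds were tested under these conditions; 0.6% (about 410) showed 50% or more at least once.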
D: 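Enzyme assay of the cytosolic lysyl-tRNA synthetase in 384-well plates, read by luminescence. Target: Lysine-tRNA ligase, Plasmodium falciparum 3D7 (UniProt Q8IDJ8). Tested at 30 µM. Direction is inferred from only a few compounds that gave an IC50; most scored high, so higher reads as stronger inhibition. Of about 69,000 compounds tested this way, about 49 (0.071%) reached 50% or more in at least one test.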

The filed quantity is “Percent Effect” (%). The record does not define 0% and 100%; most values in the screen are far below 50% and negative numbers occur (in some assays of this library far below -100). The compounds are a random part of those screened.

{"structure": "NC(=O)CCCNC(=O)Cc1csc(Cc2ccccn2)n1", "A": 3.856, "B": -6.042, "C": 14.81, "D": 2.542}
{"structure": "CC(C)c1ccc(OCn2ccc(C(=O)N3CCCC3)n2)cc1", "A": 5.385, "B": -12.13, "C": 14.15, "D": 1.116}
{"structure": "CN1CCC(N(Cc2ccco2)S(=O)(=O)c2ccc(Cl)cc2)CC1", "A": -1.175, "B": -32.76, "C": 20, "D": 0.4873}
{"structure": "Cn1cc(CN2CCCC3(CCN(c4cccnc4)C3=O)C2)cn1", "stereo": "stereo not given", "A": -2.827, "B": -10.94, "C": -2.752, "D": -2.568}
{"structure": "C=C(C)CNc1ccc(C(=O)N(CC)Cc2nccn2C)cn1", "A": 0.7236, "B": -1.079, "C": 9.167, "D": -0.4503}
{"structure": "CC(C)[C@]1(O)CN(C(=O)C2(Cn3cccn3)CC2)C[C@H]1C", "A": 5.45, "B": -0.9325, "C": 3.529, "D": 6.434}
{"structure": "CC(C)NC(=O)N1CC(=O)c2sc(Nc3ccc(C#N)cc3)nc2C1", "B": 33.58, "C": 22.86, "D": 4.735}
{"structure": "O=C(c1cccnc1)N1CCCC(c2ncncc2-c2ccncc2)C1", "stereo": "stereo not given", "B": -3.679, "C": 2, "D": -1.453}
{"structure": "COc1cccc(-n2c(C)cc(C(=O)O)c2C)c1", "A": -0.236, "B": -12.03, "C": -21.35, "D": 3.046}
{"structure": "O=C(Cc1cccs1)N1C[C@@H]2CC[C@H](C1)N(Cc1ccccn1)C2=O", "A": -0.4397, "B": -29.25, "C": 11.48, "D": -0.7675}
{"structure": "Cc1cc(NC(=O)CNC(C)(C)c2ccc3c(c2)OCO3)on1", "A": 1.874, "B": -22.52, "C": 11.11, "D": 4.506}
{"structure": "O=C(NCc1ccccc1)C1=NOC2(CCNC2)C1", "stereo": "stereo not given", "A": -2.441, "B": -1.646, "C": 7.273, "D": 3.93}
{"structure": "Cc1oc2c(c1C(=O)N1C[C@H](O)[C@]3(CCCO3)C1)CCCC2", "A": -5.39, "B": 14.73, "C": 21.74, "D": -0.3415}
{"structure": "CCC(C(=O)NCc1nc(C)cc(C(F)(F)F)n1)n1cccn1", "stereo": "stereo not given", "A": 6.51, "B": -9.439, "C": 20, "D": -1.819}
{"structure": "c1cc(CNCC2Cn3nncc3CO2)cs1", "stereo": "stereo not given", "A": -6.038, "B": -27.16, "C": 18, "D": 4.011}
{"structure": "COCCN1CCN(Cc2cccc(OCC(N)=O)c2)CC1C", "stereo": "stereo not given", "A": -4.139, "B": -7.163, "C": 6.757, "D": -4.199}
{"structure": "O=C(c1cccs1)N1CCc2c(nc(N3CCCC3)[nH]c2=O)C1", "B": 5.318, "C": 1.042, "D": 1.334}
{"structure": "Fc1ccc(-c2cnc(CN3CCOC(Cn4cccn4)C3)o2)cc1", "stereo": "stereo not given", "A": -4.543, "B": 13.75, "C": 12.5, "D": 0.6749}
{"structure": "CCn1ncc(Cl)c1CN(C)C(=O)CCn1ncc(Br)c1C", "A": 1.699, "B": -17.51, "C": -16.85, "D": 3.606}
{"structure": "Cc1ccc(C2(CN3CCCC3)CCNCC2)nc1", "A": -0.2322, "B": -11.6, "C": 28.85, "D": 3.099}
{"structure": "CCCN1CCC2(Cc3ccccc3NC2=O)C1", "stereo": "stereo not given", "A": 0.1804, "B": -24.9, "C": 21.05, "D": 8.989}
{"structure": "CC(NC(=O)c1csnn1)c1ccc(OCC2CC2)c(F)c1", "stereo": "stereo not given", "A": -2.803, "B": -9.79, "C": 15.09, "D": 2.549}
{"structure": "Cc1cc(C)c2[nH]c(C(=O)NCCN3CCNC3=O)c(C)c2c1", "A": 4.354, "B": -15.16, "C": 23.01, "D": 8.084}
{"structure": "Oc1ccccc1-c1n[nH]c(C2CC2)n1", "A": -7.002, "C": 18.52, "D": 4.771}
{"structure": "O=C(CO)N1CCC(c2cncc(-c3cccc(Cl)c3)n2)CC1", "A": -2.291, "B": -29.2, "C": 24.09, "D": -3.563}
{"structure": "COC[C@H]1CC[C@@H]2[C@@H](CCN2Cc2ccco2)O1", "A": 3.239, "B": -11.84, "C": 18.09, "D": -8.983}
{"structure": "Cc1ccc(C2(CN(C)Cc3sccc3C)CCNCC2)nc1", "A": -5.779, "B": -13.83, "C": 15.04, "D": 1.236}
{"structure": "CCOc1ccccc1C(=O)Oc1cc(=O)n2cccc(C)c2n1", "A": 6.067, "B": 0.8088, "C": 5.263, "D": 11.81}